Drawing on PubChem BioAssay AID1487 (National Center for Advancing Translational Sciences (NCATS), 2009), this text covers AC50 for 37 molecules.

A word on the AC50: it is the concentration giving half of the maximal activity seen.

Structures are written as SMILES. The list shows a part of the results. These are further read-outs of the screen, such as a control signal, another cell line or another target. No call is given for them. Compounds called inactive in the main read-out are mostly missing here. The note in brackets gives the kind of curve behind each potency; many fits are weak.

This test is described as follows: qHTS Assay for Modulators of Lamin A Splicing. The settings on record: HeLa LMNA splicing GFP/RFP minigene ratio, 48 h. Put shortly: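 S3 HeLa cells stably expressing lamin A-EGFP splicing minigene plus DsRed2, 600 cells/well, 48 h compound exposure at 37C. Laser-scanning cytometry; analysed as GFP (500-530 nm)/RFP (575-640 nm) total intensity ratio; 0.5% DMSO vehicle.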
A general note: In qHTS, concentration-response curves come from the screen itself.

[1] abbreviates: measured here: RFP viability control channel.
The mark [2] stands for this setting: measured here: GFP splicing reporter channel.

Take `CCN(CCO)Cc1csc2cc(C)ccc12`: the AC50 under setting [1] was 35.5 µM [rising, single point]. In the case of `COc1ccc2cc(-c3cc(C(=O)O)c4ccccc4n3)ccc2c1`, under setting [2], the concentration at half-maximal activity (AC50) is 7.08 µM [falling, partial curve, poor fit]. For the molecule `O=C(COc1ccc(-c2nnc(N3CCCCC3)c3ccccc23)cc1)N1CCCCC1`, under setting [1], the half-maximal activity concentration (AC50) is 12.6 µM [rising, partial curve, poor fit]. Still for that read-out and setting: to `CCCSc1nc(-c2ccccc2)[nH]c1S(=O)(=O)c1ccc(C)cc1` belongs 31.6 µM [rising, single point]. The same measure, in the same setting: to `COc1ccc(N2CCN(C(=O)NC34CC5CC(CC(C5)C3)C4)CC2)cc1` belongs 12.6 µM [rising, single point]. With `Cc1nc(OCc2c(C)noc2C)c2ccccc2n1`, the AC50 is, setting by setting: under setting [2], 0.0708 µM [falling, full curve, poor fit]; under setting [1], 0.00891 µM [falling, full curve, poor fit]. For `CCOc1ccc(C(=O)NC(=S)Nc2ccccc2N2CCOCC2)cc1Br`, the AC50 runs as follows: under setting [2], 0.00501 µM [falling, full curve, poor fit]; under setting [1], 0.00501 µM [falling, full curve, poor fit]. As for `O=C(Cc1ccccc1)NNC(=O)C1CCN(c2ncccn2)CC1`, the AC50 under setting [1] is 0.0708 µM [rising, full curve, poor fit].

`COc1cc(/C=C2/SC(=S)NC2=O)ccc1OS(=O)(=O)c1ccc(C)cc1`: the AC50 under setting [1] was 35.5 µM [rising, single point]. Turning to `COc1ccccc1NC(=O)c1cnc(SCC(=O)N2CCOCC2)n(C)c1=O`, the AC50 is, setting by setting: under setting [2], 14.1 µM [falling, single point]; under setting [1], 35.5 µM [falling, single point]. As to `C/C(=N\NC1=NCCN1)c1ccccc1`, the AC50 under setting [2] was 5.62 µM [rising, partial curve]. Consider `CC(=O)/C(=N/Nc1ccc(C)cc1)Sc1nnc(CCc2ccccc2)n1-c1ccccc1`, for which the AC50 under setting [1] was 20 µM [rising, single point].

`CC(=O)c1ccc(NC(=S)N2CCN(c3cccc(Cl)c3)CC2)cc1`: the AC50 under setting [1] is 20 µM [rising, partial curve, poor fit].

`CC(C)/C=N/Nc1nc(-c2ccc(Br)cc2)cs1`: the AC50 under setting [2] is 17.8 µM [rising, single point] and the AC50 under setting [1] is 35.5 µM [rising, single point]. As to `Cc1ccc(OCC(=O)NC2CCCC2)c(C)c1`, the AC50 under setting [1] is 31.6 µM [rising, single point]. `NS(=O)(=O)c1ccc(Nc2ccc3nonc3c2[N+](=O)[O-])cc1`: the AC50 under setting [1] was 0.0562 µM [rising, full curve, poor fit]. Still for that read-out and setting: to `CCOC(=O)C1=Nc2ccccc2C1=[N+]=[N-]` belongs 15.8 µM [rising, single point]; to `Cc1ccccc1/C=N/Nc1ccc(Cl)nn1`, 0.158 µM [rising, full curve, poor fit]. Still for that read-out and setting: the result for `CCN(CC)S(=O)(=O)c1cccc(NC(=O)c2ccc(-n3nc(C)cc3C)cc2)c1` reads 11.2 µM [rising, partial curve]; that for `CCn1cc([N+](=O)[O-])c(C(=O)Nc2nc(-c3ccc(C)c(C)c3)c(C)s2)n1`, 15.8 µM [rising, single point]. Regarding `COc1ccc(OCCn2c(NC(=O)c3ccco3)nc3ccccc32)cc1`, the AC50 is 17.8 µM [rising, single point] under setting [2] and 25.1 µM [rising, single point] under setting [1]. Take `COc1cccc(-c2nnc(SCc3cccnc3)o2)c1`: the half-maximal activity concentration (AC50) was 15.8 µM [rising, partial curve] under setting [2] and 8.91 µM [rising, partial curve] under setting [1].

`O=C(Nc1nnc(C(F)(F)F)s1)c1ccc(N2C(=O)C3C4C=CC(C4)C3C2=O)cc1` (centres undefined): under setting [1], the concentration at half-maximal activity (AC50) was 35.5 µM [rising, single point]. Turning to `CCOc1ccc(Br)cc1S(=O)(=O)Nc1cccc(S(=O)(=O)N(C)c2ccccc2)c1`, under setting [2], the AC50 is 35.5 µM [falling, single point]. For the molecule `O=C(/C=C/c1ccc(OC2CSC2)cc1)c1ccccc1`, the AC50 under setting [2] is 22.4 µM [falling, single point] and the AC50 under setting [1] is 25.1 µM [falling, single point]. In the case of `COc1cccc(-c2nc(N(C)C)c3ccccc3n2)c1`, under setting [2], the AC50 is 20 µM [falling, partial curve]. In the case of `CCOc1ccc(C(=O)Nc2ccc3nc(SCC(=O)N4CCc5ccccc54)sc3c2)cc1`, the half-maximal activity concentration (AC50) was 1.58 µM [falling, partial curve, poor fit] under setting [2] and 22.4 µM [falling, partial curve, poor fit] under setting [1]. `Cc1nn(C)c(C(=O)N2CCc3ccccc32)c1Br`: the AC50 reads like this: under setting [2], 12.6 µM [rising, single point]; under setting [1], 14.1 µM [rising, single point].

As for `COc1ccccc1N(C)S(=O)(=O)c1ccc(C(=O)Nc2ccc3nc(C)sc3c2)cc1`, the half-maximal activity concentration (AC50) under setting [1] is 14.1 µM [rising, single point]. With `CCNc1ncc2nc(-c3ccc(Cl)cc3)c(=O)n(Cc3cccs3)c2n1`, the concentration at half-maximal activity (AC50) is 25.1 µM [falling, partial curve, poor fit] under setting [2] and 35.5 µM [falling, single point] under setting [1]. Regarding `Cc1ccc2[nH]c3c(c2c1)CCc1cn[nH]c1-3`, the AC50 under setting [1] is 20 µM [rising, partial curve, poor fit]. Turning to `CCCc1nc(SCC(=O)Nc2ccc(S(=O)(=O)N(C)C)cc2)c2ccccc2n1`, the concentration at half-maximal activity (AC50) under setting [1] was 7.94 µM [rising, partial curve]. Still for that read-out and setting: to `COc1ccc2cc(C(=O)C3CCCN(Cc4cccc(C)n4)C3)ccc2c1` (centres undefined) belongs 0.02 µM [falling, full curve, poor fit]; to `Cc1cc2cc(CNC(=O)c3cccc([N+](=O)[O-])c3)ccc2[nH]1`, 11.2 µM [rising, single point].

Regarding `COC(=O)c1ccc(NC(=O)c2ccc(F)cc2)o1`, the concentration at half-maximal activity (AC50) is 17.8 µM [rising, single point] under setting [2] and 22.4 µM [rising, single point] under setting [1]. Consider `COc1ccc(C(=O)COC(=O)CCN2C(=O)[C@@H]3[C@H](C2=O)[C@@H]2C[C@H]3C(Br)C2Br)cc1` (some centres undefined), for which, under setting [1], the AC50 is 0.0562 µM [rising, full curve, poor fit]. With `Cc1ccc(C(=O)N2C(=S)C(c3ccc(F)cc3)=NC23CCN(C)CC3)cc1`, the AC50 under setting [2] was 35.5 µM [rising, single point] and the half-maximal activity concentration (AC50) under setting [1] was 35.5 µM [rising, single point].
